Measurements reported in PubChem BioAssay AID1259279 (Sanger Institute, 2017)
Shown is a random part of 794 reagents tested. In the full data, 11 (1.4%) were called active. 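Calls reflect knock-down alone in the vehicle arm, not drug synergy.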 Not all columns of the deposit are shown. Reagent sequences are not shown. Not stated in the record: the amount of reagent, the time to read-out.

Screen: 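Kinase-wide knock-down seeking synergy with BYL719, cetuximab or trametinib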 (primary screen)
Cell system: LS180 human colorectal cancer cells
Reagent: siRNA pool against human genes
Treatment: anchor drug BYL719 at 1 µM, cetuximab at 5 µg/ml or trametinib at 10 nM, or DMSO vehicle only
Detection: 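Cell viability versus a non-targeting pool, as a fraction and as a robust z-score from replicate means, plus a synergy score for each of three drugs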
Reading the numbers: viability z-score, no drug: higher = more viable cells after knock-down
Rule for the call: 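a knock-down is called active, meaning essential, if its viability z-score in vehicle alone falls below -3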
Meaning of the calls: active = essential (knock-down alone cuts viability); inactive = no change without drug

| gene | viability z-score, no drug | Call |
| --- | --- | --- |
| TAF1 | -0.281 | inactive |
| PIM3 | 0.86 | inactive |
| ELF3 | -0.938 | inactive |
| PIK3C2B | 0.793 | inactive |
| ALPK3 | -0.686 | inactive |
| TP53 | 0.559 | inactive |
| HCK | 0.754 | inactive |
| TNIK | 0.036 | inactive |
| STK38L | -1.96 | inactive |
| CSNK1D | 0.86 | inactive |
| MAP3K2 | 0.86 | inactive |
| UCK1 | -0.161 | inactive |
| CDKN2C | 0.309 | inactive |
| RIPK3 | 0.826 | inactive |
| AMER1 | -0.637 | inactive |
| TRPM6 | 0.86 | inactive |
| PAK4 | -0.881 | inactive |
| CDKL4 | 0.364 | inactive |
| DLG1 | -0.241 | inactive |
| RPS6KC1 | 0.86 | inactive |
| PDXK | 0.86 | inactive |
| DGKB | -2.21 | inactive |
| TRIO | -0.11 | inactive |
| DGKG | -0.561 | inactive |
| MVK | 0.86 | inactive |
| TYRO3 | -0.912 | inactive |
| CDK11A | -1.41 | inactive |
| NEK1 | 0.581 | inactive |
| ALK | -2.37 | inactive |
| STRADB | 0.86 | inactive |
| LIMK1 | 0.171 | inactive |
| CDK11B | 0.86 | inactive |
| PRKCI | 0.86 | inactive |
| RPS6KB2 | -0.665 | inactive |
| IRAK2 | -0.0629 | inactive |
| ITPKB | 0.229 | inactive |
| NME1 | 0.86 | inactive |
| FES | -0.503 | inactive |
| ANKK1 | -0.0187 | inactive |
| AKAP9 | 0.86 | inactive |
| MAP3K20 | 0.86 | inactive |
| DIS3 | -0.267 | inactive |
| CHEK1 | -1.22 | inactive |
| ULK4 | -0.762 | inactive |
| HASPIN | -0.265 | inactive |
| PAK1 | 0.223 | inactive |
| WIPF1 | -3.59 | active |
| CLK1 | 0.86 | inactive |
| CDK5R2 | 0.151 | inactive |
| LMTK1 | 0.387 | inactive |
| GK2 | 0.515 | inactive |
| EFNA5 | 0.86 | inactive |
| HIPK1 | 0.818 | inactive |
| STRADA | -1.17 | inactive |
| COQ8B | -0.495 | inactive |
| ACVR1C | 0.86 | inactive |
| GTF2H1 | -0.845 | inactive |
| RFK | 0.191 | inactive |
| BMX | 0.86 | inactive |
| NEK2 | -0.386 | inactive |
| TLK1 | -1.41 | inactive |
| TESK1 | 0.0423 | inactive |
| SMAD2 | 0.86 | inactive |

Look-ups from above.
Result of HIPK1 in “viability z-score, no drug”: 0.818
TP53, Call = inactive
Entry of MAP3K2 in “Call”: inactive
CDK11A, Call = inactive
Value of RFK under “viability z-score, no drug”: 0.191
RPS6KC1, Call → inactive
